Test results reported in US20240124418A1 (BioTheryX, Inc., priority 2020, published 2024).
Some results were stated once for a whole list of compounds, not compound by compound.

System: PDE4D, in particular, PDE4D short isoform
Assay: Protein degradation assay, western blot, PDE4D in A549 cells
Type: cell-based
Settings: 24 h treatment, 'as high as about' = upper value for the group

Structure (SMILES)	PDE4D (in particular PDE4D short isoform) degradation relative to DMSO
O=C1CCC(N2C(=O)c3cccc(N4CCC(CCCCCCCOc5cc(C(=O)Nc6c(Cl)cncc6Cl)ccc5OC(F)F)CC4)c3C2=O)C(=O)N1 (stereo not drawn) [Compound B14, N-(3,5-Dichloropyridin-4-yl)-4-(difluoromethoxy)-3-((7-(1-(2-(2,6-dioxo-piperidin-3-yl)-1,3-dioxoisoindolin-4-yl)piperidin-4-yl)heptyl)oxy)benzamide]	≤ 95%
O=C1CCC(N2Cc3c(csc3COc3ccc(CNCCCCCCCOc4cc(C(=O)Nc5c(Cl)cncc5Cl)ccc4OC(F)F)cc3)C2=O)C(=O)N1 (stereo not drawn) [Compound B18, N-(3,5-Dichloropyridin-4-yl)-4-(difluoromethoxy)-3-((7-((4-((5-(2,6-dioxo-piperidin-3-yl)-4-oxo-5,6-dihydro-4H-thieno[3,4-c]pyrrol-1-yl)methoxy)benzyl)amino)heptyl)-oxy)benzamide]	≤ 95%
Cc1ncsc1-c1ccc(CNC(=O)[C@@H]2C[C@@H](O)CN2C(=O)[C@@H](NC(=O)CCCCCCCCOc2cc(C(=O)Nc3c(Cl)cncc3Cl)ccc2OC(F)F)C(C)(C)C)cc1 [Compound B20, (2S,4R)-1-((S)-2-(9-(5-((3,5-Dichloropyridin-4-yl)carbamoyl)-2-(difluoromethoxy)phenoxy)nonanamido)-3,3-dimethylbutanoyl)-4-hydroxy-N-(4-(4-methylthiazol-5-yl)benzyl)pyrrolidine-2-carboxamide]	≤ 95%
Cc1ncsc1-c1ccc(CNC(=O)[C@@H]2C[C@@H](O)CN2C(=O)[C@@H](NC(=O)CCCCCCCCCCOc2cc(C(=O)Nc3c(Cl)cncc3Cl)ccc2OC(F)F)C(C)(C)C)cc1 [Compound B21, (2S,4R)-1-((S)-2-(11-(5-((3,5-dichloropyridin-4-yl)carbamoyl)-2-(difluoromethoxy)phenoxy)undecanamido)-3,3-dimethylbutanoyl)-4-hydroxy-N-(4-(4-methyl-thiazol-5-yl)benzyl)pyrrolidine-2-carboxamide]	≤ 95%
O=C1CCC(Nc2cccc(NC(=O)CN3CCN(CCOc4cc(C(=O)Nc5c(Cl)cncc5Cl)ccc4OC(F)F)CC3)c2)C(=O)N1 (stereo not drawn) [Compound B24, N-(3,5-Dichloropyridin-4-yl)-4-(difluoromethoxy)-3-(2-(4-(2-((3-((2,6-dioxopiperidin-3-yl)amino)phenyl)amino)-2-oxoethyl)piperazin-1-yl)ethoxy)benzamide]	≤ 95%
O=C1CCC(Nc2cccc(NC(=O)CN3CCN(CCCCOc4cc(C(=O)Nc5c(Cl)cncc5Cl)ccc4OC(F)F)CC3)c2)C(=O)N1 (stereo not drawn) [Compound B25, N-(3,5-Dichloropyridin-4-yl)-4-(difluoromethoxy)-3-(4-(4-(2-((3-((2,6-dioxopiperidin-3-yl)amino)phenyl)amino)-2-oxoethyl)piperazin-1-yl)butoxy)benzamide]	≤ 95%
